These are yes or no findings as the source states them, for the method shown. In cells and extracts the contact can be indirect. Some results given as binding are weak or reduced against the parent protein; the word gives no strength. Tags and fused reporters may be left off the sequences shown.
Tests used:
[1] = target: T1, EGFP-fused BROMI(157–1,298) (human) (UniProt Q96NH3); assay: co-IP; the beads of the VIP assay (EGFP-fused protein precipitated with GST-tagged anti-GFP Nb from HEK293T lysates) subjected to SDS-PAGE and immunoblotting with anti-mChe or anti-GFP antibody
T1 sequence: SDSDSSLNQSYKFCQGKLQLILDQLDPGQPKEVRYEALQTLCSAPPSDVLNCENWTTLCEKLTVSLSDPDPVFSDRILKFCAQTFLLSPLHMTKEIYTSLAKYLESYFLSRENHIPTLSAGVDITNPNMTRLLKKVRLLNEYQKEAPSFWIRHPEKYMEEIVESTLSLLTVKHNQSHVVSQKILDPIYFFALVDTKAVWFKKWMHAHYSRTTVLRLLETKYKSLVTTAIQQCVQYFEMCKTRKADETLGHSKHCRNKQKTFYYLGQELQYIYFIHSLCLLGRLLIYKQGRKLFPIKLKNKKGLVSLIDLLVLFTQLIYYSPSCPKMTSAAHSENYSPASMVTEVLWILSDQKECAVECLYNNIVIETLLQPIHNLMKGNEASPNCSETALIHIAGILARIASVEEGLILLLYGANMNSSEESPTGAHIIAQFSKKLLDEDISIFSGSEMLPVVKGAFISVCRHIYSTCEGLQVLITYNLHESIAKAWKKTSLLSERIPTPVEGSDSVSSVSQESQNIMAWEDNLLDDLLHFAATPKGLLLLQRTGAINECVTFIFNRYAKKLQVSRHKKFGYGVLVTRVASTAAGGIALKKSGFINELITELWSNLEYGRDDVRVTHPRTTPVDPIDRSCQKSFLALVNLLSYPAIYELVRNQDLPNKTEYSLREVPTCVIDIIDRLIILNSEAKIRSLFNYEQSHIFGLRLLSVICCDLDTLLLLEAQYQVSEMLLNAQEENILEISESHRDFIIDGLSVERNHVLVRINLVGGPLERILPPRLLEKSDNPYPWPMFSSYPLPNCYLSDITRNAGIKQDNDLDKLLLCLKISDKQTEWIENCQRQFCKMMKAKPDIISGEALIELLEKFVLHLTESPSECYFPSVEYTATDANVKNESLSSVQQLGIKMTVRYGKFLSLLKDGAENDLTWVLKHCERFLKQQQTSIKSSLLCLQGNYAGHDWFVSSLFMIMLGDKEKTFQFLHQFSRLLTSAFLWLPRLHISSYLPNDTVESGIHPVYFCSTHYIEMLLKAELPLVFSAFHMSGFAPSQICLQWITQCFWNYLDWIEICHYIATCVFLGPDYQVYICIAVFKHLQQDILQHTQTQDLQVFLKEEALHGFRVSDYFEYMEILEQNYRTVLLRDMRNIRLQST

[2] = target: T2, EGFP-fused BROMI(243–1,298) (human) (UniProt Q96NH3); assay: as above
T2 sequence: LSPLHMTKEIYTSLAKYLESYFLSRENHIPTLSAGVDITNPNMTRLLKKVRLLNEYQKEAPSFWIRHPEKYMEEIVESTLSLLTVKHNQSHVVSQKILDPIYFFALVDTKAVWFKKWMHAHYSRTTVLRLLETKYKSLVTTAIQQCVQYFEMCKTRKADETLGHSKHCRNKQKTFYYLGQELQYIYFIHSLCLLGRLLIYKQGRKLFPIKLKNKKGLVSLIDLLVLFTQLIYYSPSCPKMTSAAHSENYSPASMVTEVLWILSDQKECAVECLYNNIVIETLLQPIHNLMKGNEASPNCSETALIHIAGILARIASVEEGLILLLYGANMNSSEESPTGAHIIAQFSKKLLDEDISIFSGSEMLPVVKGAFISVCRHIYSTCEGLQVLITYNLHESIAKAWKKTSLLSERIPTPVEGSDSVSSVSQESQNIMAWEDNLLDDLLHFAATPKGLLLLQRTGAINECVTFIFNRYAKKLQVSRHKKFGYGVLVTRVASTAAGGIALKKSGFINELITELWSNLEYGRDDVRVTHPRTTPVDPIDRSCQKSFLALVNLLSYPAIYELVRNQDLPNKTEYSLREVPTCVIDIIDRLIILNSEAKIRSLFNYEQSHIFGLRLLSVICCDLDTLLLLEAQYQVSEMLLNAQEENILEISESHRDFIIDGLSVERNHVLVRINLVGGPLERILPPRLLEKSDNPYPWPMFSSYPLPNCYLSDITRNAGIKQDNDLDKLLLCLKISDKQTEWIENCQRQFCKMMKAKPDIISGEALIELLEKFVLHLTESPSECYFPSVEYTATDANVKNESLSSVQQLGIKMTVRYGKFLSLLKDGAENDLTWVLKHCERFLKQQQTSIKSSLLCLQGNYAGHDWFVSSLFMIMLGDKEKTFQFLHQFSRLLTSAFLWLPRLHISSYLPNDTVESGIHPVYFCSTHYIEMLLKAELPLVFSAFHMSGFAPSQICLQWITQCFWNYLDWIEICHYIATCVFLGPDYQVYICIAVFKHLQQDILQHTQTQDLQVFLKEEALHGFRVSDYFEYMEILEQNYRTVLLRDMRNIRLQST

binding [1]: binds | binding [2]: binds
Substance: CCRK-mChe (from UniProt Q8IZL9-1 1-346)

From PMC8500422
